Drawing on patent publication US5061691A (Kabushiki Kaisha Vitamin Kenkyuso, priority 1987, dated 1991), this text covers step yield for one substance.

HELM strings list residues between dots; [ac] is acetyl, [am] amide, other brackets name non-standard units.

This series can be described thus: general procedure: solution-phase peptide synthesis. As to conditions: late stage modification step.

“PEPTIDE1{Y.[dA].G}|PEPTIDE2{Y.[dA].G}|CHEM1{[DACH]}$PEPTIDE1,CHEM1,3:R2-1:R1|PEPTIDE2,CHEM1,3:R2-1:R2$$$V2.0”: the step yield was found to be 98%.
